{"source": "paper PMC8453168", "target": "T1, FLAG-HA-PTPRN (tyrosine phosphatase receptor type N), expressed in 293T cells (human) (UniProt Q16849)", "T1 sequence": "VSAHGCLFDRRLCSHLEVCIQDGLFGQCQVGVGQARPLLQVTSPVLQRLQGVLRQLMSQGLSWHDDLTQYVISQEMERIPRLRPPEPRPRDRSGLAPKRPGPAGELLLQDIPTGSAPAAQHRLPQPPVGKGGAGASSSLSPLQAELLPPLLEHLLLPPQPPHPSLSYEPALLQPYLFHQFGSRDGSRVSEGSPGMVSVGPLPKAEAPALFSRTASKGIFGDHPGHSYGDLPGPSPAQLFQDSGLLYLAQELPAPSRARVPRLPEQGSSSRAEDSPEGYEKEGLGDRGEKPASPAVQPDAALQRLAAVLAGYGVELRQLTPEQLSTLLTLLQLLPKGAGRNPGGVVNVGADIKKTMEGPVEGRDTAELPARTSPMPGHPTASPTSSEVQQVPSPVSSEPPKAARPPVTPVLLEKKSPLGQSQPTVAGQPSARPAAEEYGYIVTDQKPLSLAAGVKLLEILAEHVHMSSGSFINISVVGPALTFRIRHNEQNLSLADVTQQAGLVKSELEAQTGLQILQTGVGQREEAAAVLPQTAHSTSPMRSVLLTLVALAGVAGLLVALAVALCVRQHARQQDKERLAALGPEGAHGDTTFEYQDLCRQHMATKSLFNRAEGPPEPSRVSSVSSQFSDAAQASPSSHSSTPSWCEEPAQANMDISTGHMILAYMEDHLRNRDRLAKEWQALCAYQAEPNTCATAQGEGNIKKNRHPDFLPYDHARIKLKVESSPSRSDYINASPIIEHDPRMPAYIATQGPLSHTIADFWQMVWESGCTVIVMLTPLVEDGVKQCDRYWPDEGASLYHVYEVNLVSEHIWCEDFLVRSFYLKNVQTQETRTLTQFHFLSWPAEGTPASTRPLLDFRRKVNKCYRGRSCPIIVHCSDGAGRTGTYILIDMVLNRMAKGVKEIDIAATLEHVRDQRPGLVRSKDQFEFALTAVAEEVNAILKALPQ", "assay": "affinity purification with mass spectrometry; anti-FLAG precipitation from lysate of FLAG-HA-PTPRN-expressing 293T cells (20 mM Tris-HCl pH 8, 137 mM NaCl, 0.5% Triton X-100, 2 mM EDTA, 4°C), agarose slurry, LC-MS/MS", "note": "These are yes or no findings as the source states them, for the method shown. Binding seen in cells or lysates may run through a third protein. A yes stands for co-enrichment or nearness to the bait. Other partners may have been found. Tags and fused reporters may be left off the sequences shown.", "data": [{"substance": "Heat shock protein 90 alpha family class A member 1 (HSP90AA1), endogenous in 293T cells (from UniProt P07900 1-732)", "values": [{"measurement": "binding", "result": "binds"}]}]}
